The source of these data is US20150105326A1.

Chains of the proteins cited; added tags and fusions are not shown. Residues count along the entry.
UniProt Q9Y4B6, residues 562-593: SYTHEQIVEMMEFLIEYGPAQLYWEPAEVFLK

No constants are given. Whether binding was seen depends on the method and setting. Some binding calls cover weakened binding; strength is not graded here.

The target of this assay is T1, retinoic acid-related orphan nuclear receptor α (RORα) wild type (UniProt P35398).
T1 sequence (K38 mono-methylated by EZH2 in cells (the fraction methylated is not stated), looked up): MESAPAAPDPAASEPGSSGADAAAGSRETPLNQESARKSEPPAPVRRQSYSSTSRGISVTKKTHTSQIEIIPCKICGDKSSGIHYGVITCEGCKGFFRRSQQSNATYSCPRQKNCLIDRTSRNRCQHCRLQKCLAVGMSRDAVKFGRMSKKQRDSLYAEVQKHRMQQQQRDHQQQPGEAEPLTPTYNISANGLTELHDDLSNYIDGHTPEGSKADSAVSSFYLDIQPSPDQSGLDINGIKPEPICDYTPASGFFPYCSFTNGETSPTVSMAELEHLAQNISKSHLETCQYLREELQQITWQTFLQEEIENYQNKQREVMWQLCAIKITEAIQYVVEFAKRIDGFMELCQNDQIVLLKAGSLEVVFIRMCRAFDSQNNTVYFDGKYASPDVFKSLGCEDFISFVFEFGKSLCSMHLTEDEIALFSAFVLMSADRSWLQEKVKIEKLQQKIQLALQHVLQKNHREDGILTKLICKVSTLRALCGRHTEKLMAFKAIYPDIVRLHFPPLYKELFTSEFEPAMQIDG
Put plainly: immunoprecipitation with anti-HA (HA-DCAF1 chromo domain), immunoblot with anti-Flag (FIG. 45).

Regarding “HA-DCAF1 chromo domain (from UniProt Q9Y4B6 562-593)”, the binding result is “binds”.
